Laboratory results reported in US20210145834A1, “COMBINATION OF POZIOTINIB WITH CYTOTOXIC AGENT AND/OR OTHER MOLECULARLY TARGETED AGENT AND USE THEREOF” (Spectrum Pharmaceuticals, Inc., priority 2018, published 2021).
Values joined by “and” are separate entries in the source; they are usually repeats but may differ in a detail not shown here. Equal values may be shown once. For some assays here: At least one read-out could not be matched to a standard name with certainty. For some assays here: At least one compound was matched to its structure with a doubt left.

Columns and labels:
Format in all cases: cell-based
BT-474 cell line = assay: Synergy effect study on cell proliferation (Example 2), single agents and 6x6 combo matrix; details: BT-474, single compound
Method: (§1) Cells were seeded in a 96-well plate at 4 to 15×10^3 cells/well. Approximately 24 hours after plating, cells were exposed to ten, two-fold or three fold serial dilutions of test individual compounds or the combination of the two test compounds at a constant molar to molar ratio or non-constant ratio of two agents. Cells were incubated in the presence of compounds for 3 days.
(§2) Inhibition of cell growth was estimated after treatment with test agent or combination of test agents for incubating time (2-3 days) and comparing the signal to cells treated with vehicle (DMSO). Cell growth (%) was calculated by following equations.
(§3) Percentage growth inhibition was calculated using both Bliss independence model and Lowewe additivity model. A score higher than 5 indicates synergy and a score less that −5 indicates antagonism.

MDA-MB-453 cells = assay: Cell growth inhibition assay (sulforhodamine B), single agents and combinations; details: MDA-MB-453, single agent, 3 days
Method: (§4) The effect of the inventive compositions on the cancer cell growth inhibition was conducted in EGFR-overexpressed or -mutated cancer cell lines.
(§5) All cells except for H1975 were cultured for 72 hours prior to cell plating. Cells were seeded in a 96-well plate at 4 to 15×10^3 cells/well. Approximately 24 hours after plating, cells were exposed to ten, two-fold or three fold serial dilutions of test individual compounds or the combination of the two test compounds at a constant molar to molar ratio or non-constant ratio of two agents. Cells were incubated in the presence of compounds for 3 days except for H1975, which was for 2 days at 3×10^3 cells/well.
(§6) Cell growth inhibition based on measurement of cellular protein content is determined by sulforhodamine B colorimetric assay according to the “Nat Protoc. […] The absorbance was read on a SpectraMax™ plate reader at 540 nm. For H1975 cells, cell growth (%) is determined by adding CellTiter™ 96 Aqueous One Solution Cell Proliferation Assay reagent (Promega) according to the manufacturer's protocol.
as §2
(§7) Percentage growth inhibition was calculated using:
a. […]
(§8) Each T value means an absorbance. […]

BT-474 cells = assay: as above; details: BT-474, single agent, 3 days
Method: as §4, §5, §6, §2, §7
a. […]
as §8

Calu-3 cell line = assay: Synergy effect study on cell proliferation (Example 2), single agents and 6x6 combo matrix; details: Calu-3, single compound, 3 days; listed as Pozotinb
Method: as §1, §2, §3

## CC(=O)Nc1cccc(-n2c(=O)n(C3CC3)c(=O)c3c(Nc4ccc(I)cc4F)n(C)c(=O)c(C)c32)c1 [Trametinib]
BT-474 cell line
  cell inhibitory activity (in words): weak or no response

## C=CC(=O)N1CCC(Oc2cc3c(Nc4ccc(Cl)c(Cl)c4F)ncnc3cc2OC)CC1 [Poziotinib, 1-[4-[4-(3,4-dichloro-2-fluoroanilino)-7-methoxyquinazolin-6-yl]oxypiperidin-1-yl]prop-2-en-1-one]
MDA-MB-453 cells
  GI50: 1.5 nM
BT-474 cells
  GI50: 0.42 nM and 0.8 nM
Calu-3 cell line
  IC50: 2 nM

## CC(=O)c1c(C)c2cnc(Nc3ccc(N4CCNCC4)cn3)nc2n(C2CCCC2)c1=O [Palbociclib]
BT-474 cell line
  cell inhibitory activity (in words): weak or no response
